US20030166009A1 (MERCK, published 2003)
No constants are given. Whether binding was seen depends on the method and setting. Some results given as binding are weak or reduced against the parent protein; the word gives no strength. Where no end group is shown, it is not given here.

The chains behind the UniProt entries cited, without tags or fusion partners. Where a name states a change or a piece, a line headed by the entry shows the natural chain unless it says otherwise.
UniProt P01189: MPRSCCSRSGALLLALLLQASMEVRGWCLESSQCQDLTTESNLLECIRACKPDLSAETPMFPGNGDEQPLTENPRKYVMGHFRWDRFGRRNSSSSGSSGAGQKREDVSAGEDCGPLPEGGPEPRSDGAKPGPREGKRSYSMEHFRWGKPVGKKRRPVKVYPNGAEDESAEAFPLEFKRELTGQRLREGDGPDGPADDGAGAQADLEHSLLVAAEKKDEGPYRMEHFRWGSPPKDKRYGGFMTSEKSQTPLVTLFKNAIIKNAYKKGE

B1: Beta MSH (peptide, UniProt P01189 217-234, looked up)
peptide: DEGPYRMEHFRWGSPPKD
notes: domain: beta MSH; The peptide is only a part of it; also called β-MSH
B2: Gamma MSH (peptide, UniProt P01189 77-87, looked up)
peptide: YVMGHFRWDRF
modifications: ends and bridges not checked
notes: domain: gamma MSH; The peptide is only a part of it; also called γ-MSH

Target: rhesus melanocortin-4 receptor protein (rhesus monkey (Macaca mulatta))
Experiment: competitive radioligand binding on crude membranes, rank order of potency

Row | Binder | binding
1 | B1 | binds
2 | B2 | binds
